In paper PMC3869763 one finds binding data, which are given here for four molecules.

Protein sequences, listed by entry. Tags and fused reporters are not part of them.
UniProt Q7TQJ8: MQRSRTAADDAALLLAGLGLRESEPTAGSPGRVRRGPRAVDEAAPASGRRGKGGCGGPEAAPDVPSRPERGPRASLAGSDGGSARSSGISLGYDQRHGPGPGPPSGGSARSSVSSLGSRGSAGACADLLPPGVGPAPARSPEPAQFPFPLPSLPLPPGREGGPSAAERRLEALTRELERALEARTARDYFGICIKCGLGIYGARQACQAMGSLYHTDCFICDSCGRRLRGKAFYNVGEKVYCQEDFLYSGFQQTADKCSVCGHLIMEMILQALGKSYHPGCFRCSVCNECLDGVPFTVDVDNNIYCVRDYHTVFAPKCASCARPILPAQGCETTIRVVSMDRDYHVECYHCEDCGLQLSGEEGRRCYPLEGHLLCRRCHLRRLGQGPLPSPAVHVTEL
UniProt Q80TS7: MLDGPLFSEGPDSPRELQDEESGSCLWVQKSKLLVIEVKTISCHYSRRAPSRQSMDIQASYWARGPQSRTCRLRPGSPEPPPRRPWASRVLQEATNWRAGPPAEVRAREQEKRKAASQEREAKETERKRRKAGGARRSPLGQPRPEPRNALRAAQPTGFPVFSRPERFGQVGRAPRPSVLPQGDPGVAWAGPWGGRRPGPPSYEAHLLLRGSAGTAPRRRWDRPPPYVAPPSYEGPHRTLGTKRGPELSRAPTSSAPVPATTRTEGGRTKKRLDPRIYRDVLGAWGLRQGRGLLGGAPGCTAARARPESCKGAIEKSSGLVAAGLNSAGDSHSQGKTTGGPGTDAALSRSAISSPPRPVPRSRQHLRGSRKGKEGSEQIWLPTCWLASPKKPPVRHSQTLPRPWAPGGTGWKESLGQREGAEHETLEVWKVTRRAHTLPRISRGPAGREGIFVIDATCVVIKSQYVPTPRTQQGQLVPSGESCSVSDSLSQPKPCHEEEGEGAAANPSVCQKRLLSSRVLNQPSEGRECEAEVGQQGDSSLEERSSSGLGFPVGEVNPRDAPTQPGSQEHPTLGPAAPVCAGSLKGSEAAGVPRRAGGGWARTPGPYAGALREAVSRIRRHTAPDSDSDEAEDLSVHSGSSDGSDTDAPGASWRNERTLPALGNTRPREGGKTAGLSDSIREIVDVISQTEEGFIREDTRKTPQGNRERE

No constants are given. Whether binding was seen depends on the method and setting. Binding seen in cells or lysates may run through a third protein. Some results given as binding are weak or reduced against the parent protein; the word gives no strength. For some of these results: Sequences can lack the tags named with a protein.

Assay in all cases: co-IP; HEK293 cells co-transfected with two tagged constructs; immunoprecipitation with anti-flag, anti-ha or anti-myc antibody, Western blot; irrelevant expression constructs as controls
The target of assay [1] is T1, myc-tagged growth arrest and DNA-damage-inducible 45 alpha (Gadd45a) (UniProt P48316).
T1 sequence: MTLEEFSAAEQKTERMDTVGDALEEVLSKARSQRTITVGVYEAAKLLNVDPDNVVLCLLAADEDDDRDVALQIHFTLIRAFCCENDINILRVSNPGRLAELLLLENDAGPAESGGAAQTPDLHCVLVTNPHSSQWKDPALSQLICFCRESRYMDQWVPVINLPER

Assay [2] deals with myc-tagged Wt1-interacting protein (Wtip) (UniProt Q7TQJ8).
The target of assay [3] is ha-tagged dendrin (mouse) (UniProt Q80TS7).
The target of assay [4] is flag-tagged dendrin (mouse) (UniProt Q80TS7).

For the molecule “flag-tagged dendrin (from UniProt Q80TS7 1-710)”, the binding result in assay [1] is listed as “binds”. In the case of “ha-tagged dendrin (from UniProt Q80TS7 1-710)”, the binding entry in assay [2] was “binds”.

With “myc-tagged Wt1-interacting protein (Wtip) (from UniProt Q7TQJ8 1-398)”, the binding result in assay [3] was “binds”.

B1: myc-tagged growth arrest and DNA-damage-inducible 45 alpha (Gadd45a) (protein, UniProt P48316 1-165)
chain: T1 sequence
For the molecule B1, the binding result in assay [4] is recorded as “binds”.
